Drawing on patent US20220259330A1, this text covers binding for 3 molecules.

Chains of the proteins cited; added tags and fusions are not shown. Lines headed by an entry give the natural chain unless they say otherwise; changes in a name come on top. Residues count along the entry.
UniProt P01137, residues 279-390: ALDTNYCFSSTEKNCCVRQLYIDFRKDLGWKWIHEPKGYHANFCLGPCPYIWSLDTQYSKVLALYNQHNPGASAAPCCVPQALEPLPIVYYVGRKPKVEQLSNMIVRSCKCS
UniProt Q15116, residues 25-170: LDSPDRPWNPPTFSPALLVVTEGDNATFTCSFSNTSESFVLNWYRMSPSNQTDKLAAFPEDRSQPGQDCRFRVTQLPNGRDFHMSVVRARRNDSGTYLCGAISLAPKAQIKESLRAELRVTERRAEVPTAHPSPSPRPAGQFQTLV

Results are given in words; binding and its absence hold for the method and conditions named. Some binding calls cover weakened binding; strength is not graded here.

Test [1] concerns the target TGF-β1 (Sino Biological, Cat. No. 10804-HNAC) (UniProt P01137). As to the kind of experiment: ELISA, TGF-β1 coated at 5 ng/well. In general terms: ELISA stands for enzyme-linked immunosorbent assay.
In test [2] the target is biotinylated human PD-1 extracellular recombinant protein (Sino Biological, Cat. No. 10377-H08H-B) (human) (UniProt Q15116). Description: condition: about 100 nM (last point at log(nM) about 2); bridging ELISA: LAG3-ECD-His coated, antibody titrated, biotinylated human PD-1 and streptavidin-HRP for detection.

B1: mAb127 (antibody, human IgG4 S228P, kappa, V domains shown)
VH: QVQLVQSGAEVKKPGASVKVSCKASGYTFTSEWMNWVRQAPGQGLEWMGQIFPALGSTNYNEMYEGRVTMTTDTSTSTAYMELRSLRSDDTAVYYCARGIGNYALDAMDYWGQGTLVTVSS
VL: DIQMTQSPSSLSASVGDRVTITCRASESVDFYGNSFMHWYQQKPGKAPKLLIYLASNLESGVPSRFSGSGSGTDFTLTISSLQPEDFATYYCQQNIEDPLTFGGGTKVEIKR
Regarding B1, the binding entry in test [1] was “binds”.

B2: mAb127-HC+14-Hu-LC (antibody, human IgG4 S228P, kappa, V domains shown)
VH: QVQLVQSGAEVKKPGASVKVSCKASGYTFTSEWMNWVRQAPGQGLEWMGQIFPALGSTNYNEMYEGRVTMTTDTSTSTAYMELRSLRSDDTAVYYCARGIGNYALDAMDYWGQGTLVTVSS
VL: DIVLTQSPASLAVSPGQRATITCRASESVDNYGNSFMNWYQQKPGQPPKPLIYFASNLESGVPARFSGSGSRTDFTLTINPVEADDTANYYCQQNNEAPPTFGQGTKVEIKR
Take B2: the binding entry in test [1] is “binds”.

B3: 5E7-Hu (antibody, human IgG4 S228P, kappa, V domains shown)
VH: EVQLVESGGGLVKPGGSLRLSCAASGFTFSDDYMAWFRQAPGKRLEWVASISHGGDYIYYADNLKGRFTISRDNAKNSLYLQMNSLRAEDTAVYFCSRDRRSIDYWGQGTLVTVSS
VL: DIQMTQSPSSLSASVGDRVTITCRASQDISNYLSWYQQKPGKTIKLLIYYTSRLHSGVPSRFSGSGSGTDYTFTISSLQPEDIATYFCQQGKTLPYTFGQGTKVEIKR
Regarding B3, the binding entry in test [2] was “no binding”.
